In paper PMC9932110 one finds binding data, which are given here for two substances.

Amino acid sequences for entries named in this document (tags omitted).
UniProt Q9D7M1: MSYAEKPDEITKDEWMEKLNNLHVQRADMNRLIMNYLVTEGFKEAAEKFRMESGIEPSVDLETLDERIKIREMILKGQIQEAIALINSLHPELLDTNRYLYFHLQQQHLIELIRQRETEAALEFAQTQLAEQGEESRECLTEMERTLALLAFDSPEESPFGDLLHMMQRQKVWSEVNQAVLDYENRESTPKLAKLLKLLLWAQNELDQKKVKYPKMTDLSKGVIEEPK
UniProt Q99PV3: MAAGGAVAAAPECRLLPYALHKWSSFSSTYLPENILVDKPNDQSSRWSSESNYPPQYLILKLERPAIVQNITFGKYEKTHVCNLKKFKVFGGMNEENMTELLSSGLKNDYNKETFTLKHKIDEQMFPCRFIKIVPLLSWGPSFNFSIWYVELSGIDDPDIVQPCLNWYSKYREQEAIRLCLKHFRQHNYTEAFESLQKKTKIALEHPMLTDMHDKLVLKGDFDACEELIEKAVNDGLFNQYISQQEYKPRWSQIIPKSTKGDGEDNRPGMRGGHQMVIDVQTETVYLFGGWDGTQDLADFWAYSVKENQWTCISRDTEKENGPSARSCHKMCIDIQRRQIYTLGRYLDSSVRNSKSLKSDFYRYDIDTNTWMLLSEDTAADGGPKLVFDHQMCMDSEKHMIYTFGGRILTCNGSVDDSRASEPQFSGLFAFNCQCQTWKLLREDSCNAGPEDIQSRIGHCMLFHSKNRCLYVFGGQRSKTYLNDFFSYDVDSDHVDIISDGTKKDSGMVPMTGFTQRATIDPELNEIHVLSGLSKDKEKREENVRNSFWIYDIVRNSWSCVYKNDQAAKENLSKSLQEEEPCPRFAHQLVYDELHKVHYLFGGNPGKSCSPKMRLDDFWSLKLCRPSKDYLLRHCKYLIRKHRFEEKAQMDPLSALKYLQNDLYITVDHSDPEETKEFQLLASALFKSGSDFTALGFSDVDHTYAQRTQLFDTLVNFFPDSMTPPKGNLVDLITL

No constants are given. Whether binding was seen depends on the method and setting. Some results given as binding are weak or reduced against the parent protein; the word gives no strength.

The target in one assay is T1, Maea (mouse) (UniProt Q4VC33).
T1 sequence: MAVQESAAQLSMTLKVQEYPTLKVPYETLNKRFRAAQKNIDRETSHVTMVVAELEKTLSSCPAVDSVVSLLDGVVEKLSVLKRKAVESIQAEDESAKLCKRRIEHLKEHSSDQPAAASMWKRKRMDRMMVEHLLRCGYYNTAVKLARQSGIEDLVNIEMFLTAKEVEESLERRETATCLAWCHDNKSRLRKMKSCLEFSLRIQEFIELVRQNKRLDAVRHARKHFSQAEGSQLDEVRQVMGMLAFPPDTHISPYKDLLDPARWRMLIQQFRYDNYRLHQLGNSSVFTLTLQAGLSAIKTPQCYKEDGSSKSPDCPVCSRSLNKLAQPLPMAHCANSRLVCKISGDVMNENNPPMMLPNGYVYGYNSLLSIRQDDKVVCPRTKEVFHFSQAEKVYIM
The assay can be described thus: SEC; Tcat complex co-expressed in Hi5 insect cells and co-purified by nickel affinity and SEC; both purified. (In general: Size exclusion chromatography separates by hydrodynamic size, large species first.)

The target in the next assay is T2, Rmnd5a (mouse) (UniProt Q80YQ8).
T2 sequence: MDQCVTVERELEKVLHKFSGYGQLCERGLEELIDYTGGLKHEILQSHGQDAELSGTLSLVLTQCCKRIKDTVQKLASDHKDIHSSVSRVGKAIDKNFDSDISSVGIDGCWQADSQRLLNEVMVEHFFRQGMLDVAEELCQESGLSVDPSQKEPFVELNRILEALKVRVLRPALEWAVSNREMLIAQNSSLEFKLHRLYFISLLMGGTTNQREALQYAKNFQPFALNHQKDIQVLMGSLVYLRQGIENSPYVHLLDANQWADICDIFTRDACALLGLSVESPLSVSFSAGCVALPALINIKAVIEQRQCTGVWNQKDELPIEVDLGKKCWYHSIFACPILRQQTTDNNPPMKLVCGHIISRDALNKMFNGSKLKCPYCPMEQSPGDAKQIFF
Described as above.

The target in the next assay is Twa1 (mouse) (UniProt Q9D7M1). The assay can be described thus: SEC; analytical SEC of mixed purified subunits and subcomplexes, shift in elution volume; details in the supporting information; both purified.

In the case of “Twa1 (of the Tcat complex) (from UniProt Q9D7M1 1-228)”, the binding result in the assay with Maea (mouse) and with Rmnd5a (mouse) was “binds” in each case.

Consider muskelin (from UniProt Q99PV3 1-735), for which, in the assay with Twa1 (mouse), the binding entry is “no binding”.
